Laboratory results from US11529319B2, “Methods and compositions for treating neurological conditions” (priority 2017, dated 2022).
“Also recorded” adds a separate entry of the source.

What was measured:
[1] = tested on: Tsc2+/- mice; assay: Fear conditioning test; format: in vivo, mouse; conditions: two-and-a-half-day treatment
Description: To determine the effects of eNMDAR antagonists on the brain histology of Tsc2^+/− mice, quantitative confocal immunohistochemistry was used to analyze coronal brain slices from 3-month-old wild-type (WT) and Tsc2^+/− mice that had been treated for two and a half days with vehicle, memantine or NitroSynapsin. Tsc2+/− mice on the C57Bl/6J background received via the intraperitoneal route either vehicle or a loading dose of 92 μmol/kg of memantine or NitroSynapsin, followed by 4.6 μmol/kg of drug twice daily for two-and-a-half-days, with the last dose 3 hours prior to the behavioral training session (for a total of five drug injections). This dosing regimen yields an effective concentration of drug at NMDARs in the brain of 1-10 μM.
Fear conditioning tests were performed on three-month-old Tsc2^+/+ and Tsc2^+/− mice to explore the effects of eNMDAR antagonists on anxiety, and learning and memory deficits in Tsc2^+/− mice. Vehicle, memantine or NitroSynapsin were administered for two and a half days, with the last dose of drug occurring 3-hours prior to the first training session. […] Freezing time of three-month-old WT and Tsc2^+/− transgenic mice treated with vehicle, memantine or NitroSynapsin in fear-conditioning trials. […] Values are mean+s.e.m. (n=7-12 mice per group). […]

[2] = tested on: Mef2c-het mice; assay: Morris water maze (spatial learning and memory); format: in vivo, mouse; conditions: 3-month treatment
Description: Mef2c heterozygous knockout (Mef2c-het) mice were created by crossing mice carrying the conventional exon 2-deleted allele of Mef2c (Mef2c^Δ2) with their WT littermates. All procedures for maintaining and using these mice were approved by the Institutional Animal Care and Use Committee (IACUC) at the Sanford Burnham Prebys Medical Discovery Institute. In this study, only male mice were used for the behavioral assays to insure uniformity (either with or without drug treatment). Chronic treatment with memantine, NitroSynapsin (both at 4.6 μmol/kg body weight) or vehicle (PBS) was administered via i.p. injection, twice a day for at least 3 months, starting at ˜2.5 weeks of age. This age was chosen because mice are still juveniles and thus treatment could begin in human at an equivalent stage.
We tested spatial reference learning and memory using a version of the conventional Morris water maze. The mice were trained to swim to a platform 14 cm in diameter and submerged 1.5 cm beneath the surface of the water. The platform was invisible to the mice while swimming. […] Mice were given 4 trials a day for as many days as necessary to reach the criterion (<20 s mean escape latency). Retention of spatial training was assessed 24 h after the last training trial. Both probe trials consisted of a 60-s free swim in the pool without the platform. […]

SMILES | conditioned fear responses (freezing in training context and novel context + cue) [1] | swimming speed during training phase [2]
CCC12CC3(N)CC(CC)(C1)CC(O[N+](=O)[O-])(C3)C2 [NitroSynapsin] | unaffected by genotype or drugs | neither Mef2c heterozygosity nor NitroSynapsin treatment affected swimming speed; also recorded: not significantly different
CC12CC3CC(C)(C1)CC(N)(C3)C2 [memantine, reference compound] | unaffected by genotype or drugs | 
